# Test results as given in PubChem BioAssay AID2685 (National Center for Advancing Translational Sciences (NCATS), 2010).
# “And” between values parts separate entries of the source, which are not always exact repeats. Identical values can stand only once. The list shows a part of the results. Further columns of the screen follow, without active or inactive calls. Most of these compounds were active or inconclusive in the main read-out, so they are no random draw. Words in brackets tell the shape of the fitted curve; partial curves, single points and poor fits give uncertain potencies.
# Assay: qHTS Assay for Lipid Storage Modulators in Drosophila S3 Cells;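 on cell number change: cells counted by Cell Tracker Red CMTPX staining in the red channel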
# Conditions: BODIPY lipid droplet fluorescence, 18-24 h; for cell number change: measured here: cell count max response, cells fed with added oleic acid
# In short: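 Drosophila S3 cells loaded with oleic acid (400 uM, as added) and compounds at several concentrations; lipid droplets imaged by 488-nm laser-scanning cytometry, 500–530 nm intensity and object ratio to cell channel. Percent activity normalized to 20 uM Triacsin C.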
# [1] = measured here: cell number channel AC50, cells fed with added oleic acid
# [2] = measured here: lipid fluorescence (Fed channel) AC50, cells fed with added oleic acid
Structure (SMILES),AC50 [1],AC50 [2],cell number change
CCOC(=O)C1=NNC(C(=O)c2ccc(Cl)cc2)C1c1ccccc1 (stereo unspecified),"0.651 µM [rising, single point]","29.1 µM [falling, single point]",
COc1ccccc1C(CNC(=O)COc1ccccc1C)N1CCCC1 (stereo unspecified),,,1.75%
CCn1ncc(/C=C2/SC(=S)NC2=O)c1C,,"4.11 µM [rising, full curve]",-1.52%
CCN1CCN(C(=O)Cn2cnc3sc(C)c(S(=O)(=O)N4CCN(c5ncccn5)CC4)c3c2=O)CC1,,"0.00461 µM [falling, full curve, poor fit]",21.9%
Cc1ccn2c(NC(C)(C)C)c(-c3cccs3)nc2c1,,,-0.621%
Cc1nn(-c2ccccc2)cc1/C=N/O,"5.8 µM [rising, full curve, poor fit]","7.31 µM [rising, partial curve]",62.1%
Cc1cc[n+](C2=C([O-])c3ccccc3C(=O)/C2=N\S(=O)(=O)c2cccs2)cc1C,,"6.51 µM [falling, partial curve]",
CN(C)c1ccc(NC2=C(Cl)C(=O)c3ccccc3C2=O)cc1,"32.6 µM [falling, single point]","0.206 µM [falling, full curve]",-30.1%
COc1ccc(OC)c(NC(=O)CN(C)S(=O)(=O)c2ccc(Cl)cc2)c1,"29.1 µM [rising, single point]","29.1 µM [rising, single point]",127%
CCOC(=O)c1sc(NC(=O)CSc2nnc(-c3ccco3)o2)c(C(=O)OCC)c1C,,,-14.2%
C=CCn1c(=O)c(C(=O)OCC)c(O)c2ccccc21,"23.1 µM [rising, single point]","23.1 µM [rising, single point]",32%
COC(CNC(=O)CNC(=S)N(CCCN1CCOCC1)Cc1cccs1)OC,,"0.13 µM [falling, full curve, poor fit]",15%
COc1cccc(-c2nc(NC3CCCC3)c3ccccc3n2)c1O,"16.4 µM [falling, single point]","18.4 µM [falling, single point]",-33.6%
O=C(CCn1cnc2ccccc2c1=O)Nc1cccc(Cl)c1,"0.461 µM [falling, full curve, poor fit]","0.651 µM [falling, full curve, poor fit]",-16.1%
O=C(Cn1cc(C(=O)c2ccco2)c2ccccc21)NC1CCCC1,"14.6 µM [falling, partial curve, poor fit]","7.31 µM [falling, partial curve]",-30.5%
O=C(CCC(=O)c1cccs1)OCC(=O)N1CCN(S(=O)(=O)c2ccccc2)CC1,"0.651 µM [falling, single point]",,35.4%
Cc1ccc(CNC(=O)CN2C(=O)CSc3ccc(S(=O)(=O)N4CCC(C)CC4)cc32)cc1,,,0.989%
CS(=O)(=O)c1ccc(Cl)c(NC(=O)COC(=O)CCN=C2NS(=O)(=O)c3ccccc32)c1,"5.17 µM [falling, single point]","0.0651 µM [falling, full curve, poor fit]",-49.9%
COC(=O)N/N=C/c1c(C)nn(-c2cccc(Cl)c2)c1Cl,,"0.731 µM [rising, single point]",2.06%
O=C(COc1cccc2ccccc12)NNC(=O)CSCCO,,,-1.72%

Structure (SMILES),AC50 [1],AC50 [2],cell number change
COc1cc(SC)ccc1C(=O)Nc1cc(C)c(OCC(=O)N2CCOCC2)c(C)c1,"20.6 µM [falling, single point]","13 µM [falling, partial curve]",-31.8%
CCOc1cc(/C=C2\C(=O)N(Cc3ccco3)C(C)=C2C(=O)OC)ccc1O,,"20.6 µM [falling, single point]",-22.6%
CC(=O)c1ccc(OC(=O)C2CSC3(C)CCC(=O)N23)cc1 (stereo unspecified),"3.26 µM [falling, single point]","6.51 µM [falling, single point]",1.59%
O=C(CCC(=O)Nc1ccccc1Cl)NNC(=O)c1ccccc1[N+](=O)[O-],,,-2.32%
COc1ccccc1C(=O)Nc1cccc(NC(=O)c2ccccc2C)c1,,,15.4%
CCN(CC(=O)NC(C)(C)C)Cc1nc2c(Br)cc(Br)cc2c(=O)[nH]1,"0.731 µM [falling, full curve]","0.651 µM [falling, full curve]",-2.11%
CCOc1cc(/C=C2\C(=O)N(Cc3ccc(C)cc3)C(C)=C2C(=O)OC)ccc1O,,"32.6 µM [falling, single point]",-22.1%
CC1CC(=O)N(CC(=O)Nc2cccc(Cl)c2)c2ccccc2S1(=O)=O (stereo unspecified),,"29.1 µM [rising, single point]",-13%
Cc1ccc(C(=O)N/C(=C/c2ccco2)C(=O)N2CCOCC2)cc1,,"6.51 µM [rising, single point]",0.952%
CC(NC(=O)Cc1ccsc1)c1ccc(F)cc1 (stereo unspecified),,,23.4%
Cc1ccc(-c2nnc(-c3ccccc3)o2)cc1,,,-20%
COc1ccc2cc3c(N)nn(C(=O)c4ccc(OC)c(OC)c4)c3nc2c1,,"0.259 µM [rising, partial curve, poor fit]",-9.3%
COC(=O)c1sc(NC(=O)COc2ccccc2OC)nc1C,"29.1 µM [rising, single point]","7.31 µM [rising, partial curve]",49.3%
COC(CNS(=O)(=O)c1cccc2nonc12)OC,"4.11 µM [falling, single point]","6.51 µM [falling, single point]",10.3%
COC(=O)c1ccc(C(=O)OC)c(NC(=S)N2CCN(c3ccc(F)cc3)CC2)c1,,"0.231 µM [rising, full curve, poor fit]",-16.2%
Cc1ccc(NC(=O)COC(=O)Cc2csc(-c3cccc(F)c3)n2)cc1C,,,27.6%
COc1ccc(Cc2c(O)nc(SCC(=O)NC34CC5CC(CC(C5)C3)C4)[nH]c2=O)cc1,"1.64 µM [falling, partial curve]","731 nM [falling, full curve] and 4.61 µM [falling, single point]",-42.2% and 0.654%
N#Cc1ccc(CSc2nnc(NC(=O)c3ccc(=O)[nH]c3)s2)cc1,,"3.26 µM [rising, partial curve, poor fit]",0.624%
O=C1OC(Nc2cc(Br)cc3cccnc23)c2ccccc21 (stereo unspecified),,"3.66 µM [falling, single point]",-24.6%
N#C/C(=C1\CCCN1)c1nc2ccccc2c(=O)[nH]1,,"0.82 µM [rising, full curve]",-2.05%

Structure (SMILES),AC50 [1],AC50 [2],cell number change
CCOC(=O)C(NC(C)=O)C(=O)Nc1ccc(C)cc1C (stereo unspecified),,"36.6 µM [falling, partial curve, poor fit]",-30%
Cc1ccc([C@@H]2[C@@H]3C(=O)N(c4ccccc4)C(=O)[C@@H]3[C@]3(C)C(=O)N(Cc4ccc(-c5ccccc5)cc4)CC(=O)N23)o1,,"29.1 µM [falling, single point]",17.4%
CN(CC(=O)Nc1ccccc1)CC(=O)Nc1ccccc1Cl,,,-15.3%
COc1cccc(-c2nn(C)c3sc(C(=O)N4CCN(c5ccccn5)CC4)cc23)c1,,"2.06 µM [rising, partial curve]",-29.5%
CCCc1cc(=O)oc2cc(C)cc(OC(C)C(=O)NCCCn3ccnc3)c12 (stereo unspecified),,"16.4 µM [rising, partial curve]",16.9%
O=C(Nc1nncs1)C1c2ccccc2Oc2ccccc21,,"20.6 µM [falling, partial curve]",-12.9%
COCCNC(=O)C(c1ccncc1)N(Cc1ccccc1)C(=O)Cn1nnc2ccccc21 (stereo unspecified),,,42.9%
CC(=O)c1cccc(NS(=O)(=O)c2ccc(N/C=C\C(=O)c3ccc(F)cc3)cc2)c1,"29.1 µM [falling, single point]",,-36.6%
COCCCNC(=O)Cc1ccc(S(=O)(=O)N2CCOCC2)s1,,"0.411 µM [falling, full curve]",-17.3%
O=C(O)CCC(=O)NCC1OCCc2ccccc21 (stereo unspecified),"29.1 µM [rising, single point]",,43.1%
OCC[C@@H]1C[C@H](O)[C@@H](O)[C@@]2(Cc3ccccc3CCO2)O1,,,23.1%
Cc1ccc2c(c1)N(CCCC(=O)Nc1cccc(C(F)(F)F)c1)C(=O)CO2,"6.51 µM [rising, single point]",,13.7%
Cc1ccnc(NC(=S)NC(=O)/C=C/c2ccccc2)c1,,,-16.5%
COC(=O)c1ccc(N2CCN(C)CC2)c(NC(=O)COc2cccc(C)c2)c1,,"29.1 µM [falling, single point]",8.7%
CCN(Cc1cccs1)C(=O)CN1CCN(S(=O)(=O)c2ccc3c(c2)OCCCO3)CC1,"18.4 µM [rising, partial curve]","29.1 µM [rising, single point]",157%
C[C@@H]1CN=C2N(CCNC(=O)CCC3CCCCC3)[C@H](Cc3ccc(O)cc3)CN21,,"0.58 µM [rising, full curve, poor fit]",19.9%
COc1cc(C(=S)N2CCCCC2)ccc1OCC(=O)N1CCCC1,"20.6 µM [rising, single point]",,125%
Cc1ccc(-c2csc(N3CCC[C@@H]3C(=O)NCCn3c(-c4ccncc4)nc4ccccc43)n2)cc1,,"1.3 µM [falling, full curve]",-28.7%
